Reference: PMC12948281

Target: ferritin heavy chain 1 (FTH1), endogenous in TS^CT cells (human (endogenous in TS^CT cells)) (UniProt P02794)
Experiment: affinity purification with mass spectrometry; IP of endogenous FTH1 with anti-FTH1 protein A+G agarose beads from TS^CT cells, control or treated with testosterone for 24 h; SDS-PAGE, in-gel trypsin digestion, LC-MS/MS

## heat shock cognate protein Hsc70 (encoded by HSPA8), endogenous in TS^CT cells (from UniProt P11142 1-646)
  binding: binds

Results are given in words; binding and its absence hold for the method and conditions named. In cells and extracts the contact can be indirect. Here binding means that the protein was enriched with, or labelled near, the bait; the list need not be complete.
